{"source": "PubChem BioAssay AID2685", "about": "(National Center for Advancing Translational Sciences (NCATS), 2010)", "experiment": "qHTS Assay for Lipid Storage Modulators in Drosophila S3 Cells;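 for cell number change: cells counted by Cell Tracker Red CMTPX staining in the red channel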", "conditions": "BODIPY lipid droplet fluorescence, 18-24 h; for cell number change: measured here: cell count max response, cells fed with added oleic acid", "method_in_brief": "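Laser-scanning cytometry quantifies lipid droplet accumulation (500–530 nm total intensity; droplet/cell object ratio) in oleic acid-fed (400 uM added) Drosophila S3 cells treated with a concentration series. 20 uM Triacsin C defined 100% inhibition.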", "key": {"[1]": {"conditions": "measured here: cell number channel AC50, cells fed with added oleic acid"}, "[2]": {"conditions": "measured here: lipid fluorescence (Fed channel) AC50, cells fed with added oleic acid"}}, "note": "The list shows a part of the results. Shown are side measurements of this screen, not its main read-out; they come without a call. Compounds called inactive in the main read-out are mostly missing here. Words in brackets tell the shape of the fitted curve; partial curves, single points and poor fits give uncertain potencies."}
{"smiles": "Cc1cc(C)cc(NC(=O)CSc2nnc(CNC(=O)c3ccco3)n2C)c1", "values": [{"measurement": "cell number change", "value": 16.7, "unit": "%"}, {"measurement": "AC50", "setting": "[1]", "value": "0.461 µM [falling, full curve]"}, {"measurement": "AC50", "setting": "[2]", "value": "0.517 µM [falling, full curve]"}]}
{"smiles": "COc1ccc(-c2cc3ncccc3cn2)cc1", "values": [{"measurement": "cell number change", "value": -8.15, "unit": "%"}, {"measurement": "AC50", "setting": "[1]", "value": "1.3 µM [falling, single point]"}, {"measurement": "AC50", "setting": "[2]", "value": "1.16 µM [falling, single point]"}]}
{"smiles": "CCCS(=O)(=O)c1cscc1NC(=O)c1c(-c2c(F)cccc2Cl)noc1C", "values": [{"measurement": "cell number change", "value": 7.74, "unit": "%"}]}
{"smiles": "CC(C(=O)NCc1ccccn1)N1C(=O)c2ccccc2C1=O", "note": "(stereo unspecified)", "values": [{"measurement": "cell number change", "value": -8.7, "unit": "%"}, {"measurement": "AC50", "setting": "[1]", "value": "1.46 µM [falling, partial curve]"}, {"measurement": "AC50", "setting": "[2]", "value": "1.64 µM [falling, partial curve]"}]}
{"smiles": "Cc1nc(NC(C)c2ccccc2)c2oc3ccccc3c2n1", "note": "(stereo unspecified)", "values": [{"measurement": "cell number change", "value": -40.8, "unit": "%"}]}
{"smiles": "Cn1nnnc1SCc1cccc(CSc2nnnn2C)n1", "values": [{"measurement": "cell number change", "value": -2.83, "unit": "%"}, {"measurement": "AC50", "setting": "[2]", "value": "2.59 µM [rising, single point]"}]}
{"smiles": "Cc1ccccc1CSc1nnc2ccc(-c3ccncc3)nn12", "values": [{"measurement": "cell number change", "value": -3.63, "unit": "%"}, {"measurement": "AC50", "setting": "[2]", "value": "0.0058 µM [falling, full curve, poor fit]"}]}
{"smiles": "CCN(C(=O)CSc1nnc(C(C)N(C)C)n1-c1ccc(F)cc1)C1CCS(=O)(=O)C1", "note": "(stereo unspecified)", "values": [{"measurement": "cell number change", "value": 12.7, "unit": "%"}, {"measurement": "AC50", "setting": "[2]", "value": "0.116 µM [rising, full curve, poor fit]"}]}
{"smiles": "Cc1cccc(C(=O)NC(=S)Nc2cccc3nc(C)ccc23)c1", "values": [{"measurement": "cell number change", "value": -26.5, "unit": "%"}, {"measurement": "AC50", "setting": "[2]", "value": "29.1 µM [falling, single point]"}]}
{"smiles": "Cc1cc(C)c(S(=O)(=O)NCc2cccnc2)cc1C", "values": [{"measurement": "AC50", "setting": "[2]", "value": "6.51 µM [falling, single point]"}]}
{"smiles": "O=C(Oc1cccc([N+](=O)[O-])c1)C1CCN(C(=O)c2ccc(F)cc2)CC1", "values": [{"measurement": "AC50", "setting": "[1]", "value": "4.11 µM [rising, partial curve, poor fit]"}]}
{"smiles": "CCn1cc(/C=N\\NC(=O)Cc2ccc([N+](=O)[O-])cc2)c(C)n1", "values": [{"measurement": "cell number change", "value": 24.4, "unit": "%"}, {"measurement": "AC50", "setting": "[2]", "value": "0.731 µM [rising, full curve, poor fit]"}]}
{"smiles": "O=C(NCCCCCCNC(=O)NCc1ccco1)NCc1ccco1", "values": [{"measurement": "cell number change", "value": 15, "unit": "%"}, {"measurement": "AC50", "setting": "[2]", "value": "1.46 µM [falling, full curve]"}]}
{"smiles": "CN(C)CCCNC(=O)c1ccc(Oc2ccccc2)cc1", "values": [{"measurement": "cell number change", "value": 56.6, "unit": "%"}, {"measurement": "AC50", "setting": "[1]", "value": "6.51 µM [falling, single point]"}]}
{"smiles": "CCOc1cc(S(=O)(=O)N2CCN=C2Cc2ccccc2)ccc1F", "values": [{"measurement": "cell number change", "value": 2.89, "unit": "%"}, {"measurement": "AC50", "setting": "[2]", "value": "3.26 µM [rising, full curve]"}]}
{"smiles": "COc1ccc(C(C)=O)cc1COC(=O)c1cc2ccccc2cc1O", "values": [{"measurement": "AC50", "setting": "[2]", "value": "29.1 µM [falling, single point]"}]}
{"smiles": "O=C(NCc1ccco1)c1cc(S(=O)(=O)N2CCCC2)ccc1Cl", "values": [{"measurement": "cell number change", "value": 7.43, "unit": "%"}]}
{"smiles": "N#Cc1ccc(COC(=O)c2cnc(Cl)c(Cl)c2)cc1", "values": [{"measurement": "cell number change", "value": 16.2, "unit": "%"}]}
{"smiles": "CCOC(=O)c1c(C)n(C)c2ccc(OC(=O)c3ccco3)cc12", "values": [{"measurement": "cell number change", "value": 109, "unit": "%"}, {"measurement": "AC50", "setting": "[1]", "value": "29.1 µM [rising, single point]"}, {"measurement": "AC50", "setting": "[2]", "value": "6.51 µM [falling, single point]"}]}
{"smiles": "COC(=O)C1=C(C)N(Cc2ccccc2)C(=NCc2cc(OC)c(OC)c(OC)c2)N[C@H]1CCc1ccccc1", "values": [{"measurement": "cell number change", "value": 7.23, "unit": "%"}, {"measurement": "AC50", "setting": "[2]", "value": "29.1 µM [falling, single point]"}]}
{"smiles": "N#CCCn1cc(/C=N/NC(=O)c2ccncc2)c(-c2ccccc2)n1", "values": [{"measurement": "cell number change", "value": -73.8, "unit": "%"}, {"measurement": "AC50", "setting": "[1]", "value": "13 µM [falling, partial curve, poor fit]"}, {"measurement": "AC50", "setting": "[2]", "value": "16.4 µM [falling, partial curve]"}]}
{"smiles": "Cc1ccc(N2CC(C(=O)OCC(=O)c3ccc([N+](=O)[O-])cc3)CC2=O)cc1", "note": "(stereo unspecified)", "values": [{"measurement": "cell number change", "value": -24.8, "unit": "%"}]}
{"smiles": "Nc1cc(=O)[nH]c(SCc2nnc(-c3ccccc3)o2)n1", "values": [{"measurement": "cell number change", "value": -8.13, "unit": "%"}, {"measurement": "AC50", "setting": "[2]", "value": "0.58 µM [falling, full curve, poor fit]"}]}
{"smiles": "CCOC(=O)CN(c1ccccn1)S(=O)(=O)c1ccccc1", "values": [{"measurement": "cell number change", "value": 3.8, "unit": "%"}, {"measurement": "AC50", "setting": "[2]", "value": "2.91 µM [rising, single point]"}]}
{"smiles": "Cc1cccc(NC(=O)CCC(=O)N/N=C/c2cccnc2)c1", "values": [{"measurement": "cell number change", "value": 41.6, "unit": "%"}, {"measurement": "AC50", "setting": "[1]", "value": "29.1 µM [rising, partial curve, poor fit]"}, {"measurement": "AC50", "setting": "[2]", "value": "5.17 µM [rising, single point]"}]}
{"smiles": "Cc1ccc(Cn2c3ccccc3c3cn[nH]c(=O)c32)cc1", "values": [{"measurement": "cell number change", "value": -3.92, "unit": "%"}, {"measurement": "AC50", "setting": "[2]", "value": "29.1 µM [falling, single point]"}]}
{"smiles": "COc1cc(NC(=O)CN2C(=O)C(c3ccccc3)=NC2(C)C)cc(OC)c1", "values": [{"measurement": "cell number change", "value": 8.75, "unit": "%"}, {"measurement": "AC50", "setting": "[1]", "value": "0.82 µM [rising, full curve, poor fit]"}]}
{"smiles": "O=C(Nc1ccc(NS(=O)(=O)c2ccccc2)cc1)c1ccccc1", "values": [{"measurement": "cell number change", "value": 169, "unit": "%"}, {"measurement": "AC50", "setting": "[1]", "value": "20.6 µM [rising, partial curve]"}, {"measurement": "AC50", "setting": "[2]", "value": "6.51 µM [rising, single point]"}]}
{"smiles": "Cc1[nH]n(-c2ccccc2)c(=O)c1N=Nc1ccc(F)cc1", "values": [{"measurement": "cell number change", "value": -47.8, "unit": "%"}, {"measurement": "AC50", "setting": "[1]", "value": "16.4 µM [falling, single point]"}, {"measurement": "AC50", "setting": "[2]", "value": "13 µM [falling, partial curve]"}]}
{"smiles": "CSC1=NCCN1S(=O)(=O)c1ccc(C)cc1", "values": [{"measurement": "cell number change", "value": 35.5, "unit": "%"}, {"measurement": "AC50", "setting": "[1]", "value": "32.6 µM [rising, single point]"}, {"measurement": "AC50", "setting": "[2]", "value": "29.1 µM [rising, single point]"}]}
{"smiles": "O=C(NC1CCCC1)c1c[nH]c2ccc(F)cc2c1=O", "values": [{"measurement": "cell number change", "value": 4.8, "unit": "%"}, {"measurement": "AC50", "setting": "[2]", "value": "0.58 µM [falling, single point]"}]}
{"smiles": "Cc1ccn2c(NC3CCCC3)c(-c3cccs3)nc2c1", "values": [{"measurement": "cell number change", "value": 2.16, "unit": "%"}, {"measurement": "AC50", "setting": "[2]", "value": "0.00461 µM [falling, full curve, poor fit]"}]}
{"smiles": "COC(=O)[C@H](CCSC)NC(=O)Cn1ccc(NC(=O)OCc2ccccc2)nc1=O", "values": [{"measurement": "cell number change", "value": -16.6, "unit": "%"}, {"measurement": "AC50", "setting": "[2]", "value": "0.517 µM [rising, partial curve]"}]}
{"smiles": "COc1ccc(C(=O)NCCCSc2ccccc2)cc1F", "values": [{"measurement": "cell number change", "value": 59.5, "unit": "%"}, {"measurement": "AC50", "setting": "[1]", "value": "8.2 µM [rising, partial curve]"}, {"measurement": "AC50", "setting": "[2]", "value": "4.61 µM [rising, full curve]"}]}
{"smiles": "Cc1cc(S(=O)(=O)N2CCOCC2)ccc1NC(=O)c1ccc(F)cc1", "values": [{"measurement": "cell number change", "value": 3.28, "unit": "%"}, {"measurement": "AC50", "setting": "[2]", "value": "6.51 µM [rising, single point]"}]}
{"smiles": "CCOC(=O)[C@@H]1[C@H]2COc3cc(OC)ccc3[C@@H]2N2C(=O)N(c3ccc(C(F)(F)F)cc3)C(=O)[C@@]12C", "values": [{"measurement": "cell number change", "value": 15, "unit": "%"}, {"measurement": "AC50", "setting": "[2]", "value": "0.13 µM [falling, full curve, poor fit]"}]}
{"smiles": "c1ccc(-c2nnc(N3CCCC3)nc2-c2ccccc2)cc1", "values": [{"measurement": "cell number change", "value": 31.9, "unit": "%"}, {"measurement": "AC50", "setting": "[1]", "value": "16.4 µM [rising, partial curve]"}]}
